Measured values from PubChem BioAssay AID743266 (National Center for Advancing Translational Sciences (NCATS), 2014).
Hit rate of the full screen: of about 410,000 compounds, about 310 (0.076%) were called active. Inconclusive means that the source gave no clear call. Such entries were picked first, then a sample of the others. Calls follow the shape of the dose curve; as a rule, active = well fitted activation curve with a large enough effect; inconclusive = small, poorly fitted or top-dose-only effect, or another doubt; inactive = no such curve, though single readings can be large or run the other way. Where the call is inconclusive, the potency comes from a doubtful curve fit.
Also: nearly all actives have a fitted effect of over 55% in size.
Potency is read from the fitted curve at half-maximal effect.

Chains of the proteins cited; added tags and fusions are not shown.
UniProt Q03431, whole entry, looked up: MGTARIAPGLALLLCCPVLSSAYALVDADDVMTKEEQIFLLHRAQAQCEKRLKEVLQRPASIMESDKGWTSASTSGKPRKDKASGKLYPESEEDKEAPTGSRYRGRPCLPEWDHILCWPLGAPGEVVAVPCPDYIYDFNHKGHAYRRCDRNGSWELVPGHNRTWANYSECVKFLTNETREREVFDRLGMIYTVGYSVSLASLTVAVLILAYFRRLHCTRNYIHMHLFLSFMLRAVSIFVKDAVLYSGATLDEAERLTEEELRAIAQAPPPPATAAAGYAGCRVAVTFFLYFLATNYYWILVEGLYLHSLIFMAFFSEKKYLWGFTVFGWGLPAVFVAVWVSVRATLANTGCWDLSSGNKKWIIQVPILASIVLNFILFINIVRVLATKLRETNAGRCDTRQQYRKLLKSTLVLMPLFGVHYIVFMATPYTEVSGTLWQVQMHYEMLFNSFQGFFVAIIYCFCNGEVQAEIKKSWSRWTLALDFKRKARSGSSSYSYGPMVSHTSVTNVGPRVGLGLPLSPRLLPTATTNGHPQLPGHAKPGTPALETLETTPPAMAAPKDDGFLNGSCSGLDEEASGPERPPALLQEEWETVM

What follows are compounds tested against Parathyroid hormone/parathyroid hormone-related peptide receptor (Homo sapiens) (UniProt Q03431) (assay: qHTS for PTHR1 Agonists: Primary Screen). Settings: HEK293 GP2 PTHR1 cells, GloSensor cAMP luminescence, 1 h; activation: at 115 µM (top of the series) unless noted; series mostly up to 115 µM.
Method in brief: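 HEK-293-derived GP2 cells expressing PTHR1 and a GloSensor cAMP reporter, 3,000/well, plated overnight, given luciferin plus IBMX (each 0.5 mM as added) for 1 h at 37 °C, then compound for 1 h at 37 °C. Luminescence was read after 15 min at room temperature.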
With CCOc1ccc(OCC)c(NC(=O)C2CCCN(S(=O)(=O)c3cc(Br)cc4c3N(C(=O)CC)CC4)C2)c1 (stereo not drawn) the Potency was inconclusive: 5.01 µM [activator, full curve, poor fit].
In the case of COC(=O)COc1ccc2oc(=O)cc(C)c2c1, the Potency was inconclusive: 1.58 µM [activator, full curve, poor fit].
COc1cc(CNn2c(C)n[nH]c2=S)cc(Br)c1OCC(=O)NC(C)(C)C was tested, and the activation was inconclusive: 74.7% [activator].
In the case of CCN1C(=O)c2ccccc2S(=O)(=O)c2ccc(C(=O)NCc3ccccc3)cc21, the “activation” value was inactive: -4.59%.
N#CC1=C2SCN(Cc3ccccc3)CN2C(=O)CC1c1ccc2c(c1)OCO2 (stereo not drawn) was tested, and the “activation” value was inactive: 0.675%.
With O=C(c1ccc2[nH]c(=O)c(=O)[nH]c2c1)N1CCN(c2ccccc2)CC1 the Potency was inconclusive: 126 µM [activator, single point].
In the case of CCN1CCCC1CNCc1ccc(OCc2ccc(Cl)nc2)c(OC)c1 (stereo not drawn), the activation was inconclusive: 30.8% [activator].
In the case of C=CCc1cccc(/C=N/n2cnnc2)c1O, the activation was inconclusive: 37.5% [activator].
In the case of CCc1ccc(C2C(C#N)=C(N)N(N3CCOCC3)C3=C2C(=O)CC(C)(C)C3)s1 (stereo not drawn), the activation was inconclusive: 7.62% [activator].
For CC1(C)Oc2ccc3ccc(=O)oc3c2-c2cn[nH]c21, the activation was inconclusive: -63.2% [activator] [at 57.5 µM].
For COc1ccc(CNC(=O)Cn2c(=O)oc3cc(S(=O)(=O)NCc4ccccc4)ccc32)cc1, the “activation” value was inactive: -28.6%.
For COc1ccc(NC(=O)c2cc3c(-c4ccccc4F)nn(C)c3s2)c(OC)c1, the “activation” value was inactive: -13.7%.
With Cc1cc2c(cn1)C(CCC#N)(CCC#N)c1ccccc1-2 the Potency was inconclusive: 3.55 µM [activator, partial curve, poor fit].
O=C(O)c1cccc(NC(=O)c2cn(-c3ccccc3)nc2-c2ccc([N+](=O)[O-])cc2)c1 was tested, and the Potency was inconclusive: 7.08 µM [activator, full curve, poor fit].
COc1ccc(OC)c(S(=O)(=O)N2CCN3CCCC3C2)c1 (stereo not drawn) was tested, and the Potency was inconclusive: 11.2 µM [activator, partial curve, poor fit].
With COc1ccccc1CNC(=O)COC(=O)c1ccc([N+](=O)[O-])o1 the Potency was inconclusive: 22.4 µM [activator, single point].
COc1ccc(N2CCN(C(=O)CN(c3ccc(Br)cc3)S(C)(=O)=O)CC2)cc1 was tested, and the activation was inconclusive: 34.2% [activator] [at 57.5 µM].
For O=C(CN(c1ccccc1)S(=O)(=O)c1ccccc1)NCCSc1nc2ccccc2s1, the “outcome” value was “inactive [at 57.5 µM]”.
c1cc(-c2nnc(-c3ccncc3)o2)ccn1 was tested, and the Potency was inconclusive: 35.5 µM [activator, single point].
In the case of CC1CCCC(C)N1CCCNC(=O)c1ccc2c(c1)NC(=O)c1ccccc1S2 (stereo not drawn), the Potency was inconclusive: 35.5 µM [activator, partial curve, poor fit].
O=C(O)c1cccc(Cn2c(Cl)c(/C=N/NC(=O)c3ccco3)sc2=O)c1 was tested, and the activation was inconclusive: 34.6% [activator].
COc1ccc(CNC(=O)c2cnc(C)cn2)c(OC)c1 was tested, and the “outcome” value was “inactive [at 57.5 µM]”.
COc1ccc(OC)c(CN2CCC(C(=O)N3CCOCC3)CC2)c1 was tested, and the Potency was inconclusive: 112 µM [activator, single point].
N#C/C(=C\c1cccc(O)c1)c1nc2ccccc2o1 was tested, and the activation was inconclusive: -51.6% [activator].
In the case of CCN(CC)C1CCN(C(=O)c2ccc(OC3CCN(Cc4ccccn4)CC3)cc2)C1 (stereo not drawn), the Potency was inconclusive: 100 µM [activator, single point].
CS(=O)(=O)N(CC(=O)NCCC1=CCCCC1)C1CCCCC1 was tested, and the Potency was inconclusive: 39.8 µM [activator, single point].
With COc1cccc(OCC(O)CN2CC(C)CC(C)C2)c1 (stereo not drawn) the Potency was inconclusive: 44.7 µM [activator, partial curve, poor fit].
For CCOC(=O)SC1=N/C(=C\c2ccc(N(C)C)cc2)C(=O)S1, the Potency was inconclusive: 0.217 µM [activator, partial curve, poor fit].
In the case of Cc1cc(C)cc(SCc2noc(C(=O)NCC3CC3)c2C(=O)NCC2CC2)c1, the “activation” value was inactive: -26%.
In the case of Cc1ccc(-c2nnc3c4ccccc4c(C)nn23)cc1S(=O)(=O)N1CCN(CCO)CC1, the Potency was inconclusive: 79.4 µM [activator, partial curve, poor fit].
Cc1nc(N2CCN(c3ccccn3)CC2)c2c(C)c(C(=O)Nc3ccc(F)cc3F)sc2n1 was tested, and the “activation” value was inactive: -19.8%.
For CCn1c(CN2CCC(C)CC2)nc2cc(NC(=O)c3ccc([N+](=O)[O-])cc3)ccc21, the “activation” value was inactive: -3.55%.
For N#Cc1ccccc1Cn1cc(/C=N/Nc2ccc([N+](=O)[O-])cn2)c2ccccc21, the “activation” value was inactive: -4.11%.
For COc1cccc(C2/C(=C(/O)c3ccc4c(c3)CC(C)O4)C(=O)C(=O)N2CCCn2ccnc2)c1 (stereo not drawn), the Potency was inconclusive: 3.55 µM [activator, partial curve, poor fit].
CC1CCN(C(C(=O)Nc2ccc3c(c2)OCO3)c2ccccc2)CC1 (stereo not drawn) was tested, and the “outcome” value was “inactive”.
For O=C(O)/C=C\C(=O)Nc1cccc(C(=O)Nc2cccc(O)c2)c1, the Potency was inconclusive: 44.7 µM [activator, single point].
For COc1ccc(C(=O)c2cc3ccc(O)cc3oc2=O)cc1, the Potency was inconclusive: 3.55 µM [activator, partial curve, poor fit].
With CCc1nnc(NC(=O)CSc2nnc(CNc3ccc(C)cc3)n2C)s1 the Potency was inconclusive: 141 µM [activator, single point].
With CCOC(=O)c1ccccc1NC(=O)c1cc2ccc3cccnc3c2[nH]1 the activation was inconclusive: 66.7% [activator].
With CCCOC(=O)CSc1nnc(-c2ccccc2)o1 the Potency was inconclusive: 14.1 µM [activator, partial curve, poor fit].
With O=C(CNc1ccc(Br)cc1)Nc1ccc(S(=O)(=O)N2CCCC2)cc1 the “activation” value was inactive: -9.82%.
For CCCN(C(=O)c1ccc(OCC(C)C)cc1)c1c(N)n(Cc2ccccc2)c(=O)[nH]c1=O, the “activation” value was inactive: -23.9%.
In the case of O=C(COc1ccccc1-c1ccccc1)N/N=C/c1ccc2ccccc2c1, the “activation” value was inactive: -17.6%.
With Cc1ccc(C)c(-n2c(SCC(=O)Nc3nnc(C)s3)nnc2-c2ccoc2C)c1 the Potency was inconclusive: 35.5 µM [activator, single point].
In the case of Cc1cc(NC(=O)c2cccc(S(=O)(=O)N3CCCCCC3)c2)n(-c2ccccn2)n1, the activation was inconclusive: 97.3% [activator].
COc1cccc(C(=O)c2cn(CC(=O)NCc3ccco3)c3nc(C)ccc3c2=O)c1 was tested, and the activation was inconclusive: -56.6% [activator].
CCOc1ccc(NC(=O)c2cnccn2)cc1 was tested, and the “outcome” value was “inactive [at 57.5 µM]”.
With CC1CCN(C(=O)c2cc3nc(-c4ccccc4)cc(-c4ccccc4)n3n2)CC1 the Potency was inconclusive: 31.6 µM [activator, partial curve, poor fit].
In the case of S=c1[nH]nc(-c2ccc(Cl)cc2Cl)n1-c1ccccc1, the Potency was inconclusive: 15.8 µM [activator, partial curve, poor fit].
OC[C@@H]1CN(Cc2ccc3c(c2)OCO3)C[C@H](n2cnc3c(NC4CCC4)ncnc32)O1 was tested, and the “activation” value was inactive: -16.1%.
For CC(=O)Oc1ccccc1N1C(=O)c2ccc(C(=O)O)cc2C1=O, the activation was inconclusive: 37.6% [activator] [at 57.5 µM].
COc1cc(/C=C/C(=O)O)cc(OC)c1 was tested, and the Potency was inconclusive: 25.1 µM [activator, full curve].
In the case of O=C(Nc1ccccc1NC(=O)c1ccco1)c1ccccc1, the Potency was inconclusive: 3.16 µM [activator, full curve].
For CCOC(=O)N1CCc2c(sc(NC(=O)CN3CCN(C)CC3)c2C(=O)Nc2ccccc2)C1, the “outcome” value was “inactive”.
With CC(C)CC1=NN2C(=N)/C(=C\c3coc4ccccc4c3=O)C(=O)N=C2S1 the “activation” value was inactive: -72.8%.
Cc1cccc(N(CC(=O)NC2CCCCC2)C(=O)c2c(C)noc2C)c1 was tested, and the Potency was inconclusive: 39.8 µM [activator, single point].
With COc1ccc(-c2nnc(SCC(=O)c3cc(C)n(Cc4cccs4)c3C)o2)cc1 the Potency was inconclusive: 44.7 µM [activator, single point].
With Cc1ccc2ncc(NC(=O)c3ccc(F)cc3)c(=O)n2c1 the Potency was inconclusive: 0.398 µM [activator, full curve, poor fit].
With CCN(c1ccccc1)S(=O)(=O)c1ccc(Cl)c(C(=O)N(CC2CCCO2)C2CCS(=O)(=O)C2)c1 (stereo not drawn) the activation was inconclusive: 43.2% [activator].
In the case of CC(=O)Nc1sc2c(c1CN1CCN(c3ccc(F)cc3)CC1)CCCC2, the “activation” value was inactive: -4.2% [at 57.5 µM].
For CCc1cccc(C)c1NC(=O)CN1C(=O)C2(SCC(=O)N2c2cccc(F)c2)c2ccccc21 (stereo not drawn), the activation was inconclusive: 34.9% [activator].
With CCCCn1c(N)c(N(CCOC)C(=O)CCC2CCCCC2)c(=O)[nH]c1=O the Potency was inconclusive: 126 µM [activator, single point].
For Cc1ccc(OCC(=O)Nc2ccc3c(c2)nc(CCN2CCC(C)CC2)n3C)cc1, the “outcome” value was “inactive”.
In the case of CCOC(=O)C(=COC(=O)c1ccccc1)NC(=O)Cc1ccccc1, the Potency was inconclusive: 50.1 µM [activator, partial curve, poor fit].
N#C/C(=C\c1ccc(-c2ccccc2[N+](=O)[O-])o1)C(=O)N1CCOCC1 was tested, and the activation was inconclusive: -62.6% [activator].
With CC1=N/C(=C\c2ccccc2Cl)C(=O)O1 the Potency was inconclusive: 25.1 µM [activator, partial curve].
With CSc1nc2ccccc2cc1/C=C(\C#N)c1ccc(Cl)cc1Cl the Potency was inconclusive: 31.6 µM [activator, partial curve, poor fit].
